Reference: PubChem BioAssay AID1307 (SRMLSC, 2008)
In all, about 1,200 compounds went through this assay and fewer than 10 were called active.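 Rule for the calls: active = inhibition reaching a set limit at one or more tested concentrations; inactive = inhibition under that limit at every dose.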 The list shows a part of the results. Entries with a potency or affinity are not part of this list.

assay: RAM pathway signaling blockade in S. cerevisiae – dose response (AID 1307);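 note: 0% = DMSO vehicle wells and 100% = 10 µM 1-NA-PP1 control; higher inhibition means more yeast growth since RAM block rescues cells from 5-FOA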; settings: S. cerevisiae RAM network URA3 reporter, 5-FOA growth OD615, stronger effect = higher value, yeast express analog-sensitive mutant Cbk1 kinase; at 100 µM unless noted

Max inhibition, inactive:
CCOCCCNC(=O)/C(C#N)=C/c1ccc(-c2ccc(S(=O)(=O)N3CCOCC3)cc2)o1 2.9% [at 25 µM]
CCOc1c(Cl)cc(C(=O)Nc2ccccc2-c2ccccc2)cc1Cl 5.22% [at 0.196 µM]
O=S(=O)(Nc1ccc(-c2csc(-c3ccccc3)n2)cc1)c1ccccc1 2.26% [at 6.25 µM]
C=CCn1c(SCC)nc2sc3c(c2c1=O)CCc1ccccc1-3 4.76% [at 25 µM]
CC1=CC(C)(C)n2c(O)c(N=NC(N)=S)c3cccc1c32 4.85%
CCN1/C(=C/C=C/C=C/c2sc3ccccc3[n+]2CC)Sc2ccccc21 9.29%
FC(F)(F)c1nc(N2CCN(c3ccccc3)CC2)nc2c1CCCCC2 3.63%
COc1ccccc1OCC(=O)Nc1ccc(-c2nnc(-c3ccco3)o2)cc1 5.19%
COc1ccc(-c2nc3ccccc3c(=O)n2CCOc2ccccc2C)cc1 6.26% [at 50 µM]
CCCOC(=O)c1ccc(NC(=O)c2c(Cl)ccc(Cl)c2OC)cc1 2.67% [at 25 µM]
COc1ccc(OC)c(NC(=O)COC(=O)Cc2ccc(-c3ccccc3)cc2)c1 2.46% [at 0.391 µM]
CCCCn1ccnc1C(=O)c1cccc(S(=O)(=O)N2c3ccccc3CC2C)c1 (centres undefined) 2.55% [at 50 µM]
CCOC(=O)C(=Cc1ccc(OCc2ccc([N+](=O)[O-])cc2)c(OC)c1)C(=O)OCC 3.46%
CCOC(=O)N1CCN(c2nc(-c3cccc(OC)c3)cc(C(F)(F)F)n2)CC1 3.81%
Cc1cc(C)c(S(=O)(=O)NCc2ccc3c(c2)cc(C)n3C)c(C)c1 4.59%
COC(=O)c1ccccc1NC(=O)c1ccc(COc2ccc3c(c2)CCC3)cc1 5.88%
Cc1cccc(Oc2cc(NC(=O)c3ccccc3)cc([N+](=O)[O-])c2)c1 4.61% [at 50 µM]
CCN(CC)S(=O)(=O)c1ccc(N2CCN(c3cccc(OC)c3)CC2)c([N+](=O)[O-])c1 4%
O=[N+]([O-])/C=C/c1c(OCc2ccccc2)ccc2ccccc12 2.91% [at 25 µM]
C=CCN1C(=O)C(Cc2ccc(C)cc2)S/C1=N/N=C/c1ccco1 (centres undefined) 6.91%
N#Cc1nc(Cc2ccccc2)oc1N1CCC(Cc2ccccc2)CC1 6.21%
O/N=C/c1cc(Br)ccc1OCc1cccc(F)c1 1.58% [at 0.196 µM]
COc1ccc(CC(=O)n2nc(-c3ccc(Cl)cc3)nc2NCc2ccco2)cc1 3.71% [at 25 µM]
COC(=O)c1cc2c(ccn2-c2ccc(F)cc2)n1Cc1ccc(OC)cc1 5.52% [at 50 µM]
COc1c(Br)cc2c(C)c(C(=O)N3CCOCC3)oc2c1Br 8.78%
COc1ccc(C(=O)O/N=C/c2c(C(F)(F)F)nn(C)c2SCc2ccccc2Cl)cc1 3.33% [at 0.196 µM]
COc1ccc(/C(C)=N/Nc2cc(C(F)(F)F)ccc2Cl)c(OC)c1 1.33% [at 50 µM]
Cc1noc(NS(=O)(=O)c2ccc(N/C=C\C(=O)c3cccs3)cc2)c1C 7.73%
CCCCC(C(=O)OCC(=O)c1ccc(OC)cc1)N1C(=O)c2ccccc2C1=O (centres undefined) 3.16%
CCCN1C(=O)/C(=c2\sc3nc(=O)c(Cc4ccc(C)cc4)nn3c2=O)c2ccccc21 5.5%
Cc1ccc(C(=O)c2ccccc2C(=O)OCC(=O)Nc2ccc(SC(F)F)cc2)cc1 5.79%
Cc1nn(Cc2ccccc2)c(Cl)c1C(=O)OCc1nnc(-c2ccccc2)o1 2.05% [at 0.782 µM]
CCCCOc1ccc(CNn2c(C)nc3ccccc3c2=O)cc1 2.44% [at 25 µM]
CCOC(=O)C(C)Sc1nc(-c2cccs2)ccc1C#N (centres undefined) 2.55% [at 0.196 µM]
CC(=O)c1c(Nc2ccccc2)sc(C(=O)c2ccccc2)c1C 5.79%
CCOc1cc(/C=N/Nc2nc(Nc3ccccc3)nc(N3CCCCC3)n2)ccc1OCC(=O)O 9.92%
Cc1ccc(S(=O)(=O)c2c(N)n(C)c3nc4ccccc4nc23)cc1 6.47% [at 50 µM]
C=CCOC(=O)C1=C(C)NC(SCC(=O)OCC)=C(C#N)C1c1ccc(C)cc1 (centres undefined) 2.76% [at 50 µM]
CCCCCCCCNC(=O)/C(C#N)=C/c1ccc(SC)cc1 5.43%
CCCCC1S/C(=N/N=C/c2ccc(OC)cc2)N(Cc2ccc(OC)cc2)C1=O (centres undefined) 3.97% [at 50 µM]
COC(=O)C/C=C/[C@@H](C)[C@@H](/C=N/OC[C@H]1O[C@H](c2ccccc2)C=C[C@@H]1Oc1ccc(OC)cc1)NS(=O)(=O)c1ccc(C)cc1 3.78%
COCCN(C(=O)C(C)C)c1nnc(-c2ccc(C(C)(C)C)cc2)s1 3% [at 50 µM]
Cc1ccc(-n2c(SCC(=O)N3CCCc4ccccc43)nnc2-c2cccnc2)c(C)c1 3.12% [at 50 µM]
CCCCn1nnc(NC(=S)NC(=O)c2ccc(-c3cccc(Cl)c3Cl)o2)n1 5.34% [at 50 µM]
O=C(/C=C/c1cccc(C(F)(F)F)c1)Nc1cccc(C(F)(F)F)c1 2.77% [at 12.5 µM]
CCOC(=O)c1c(-c2ccc(C)o2)csc1NC(=O)CSc1nncs1 1.46% [setting not given]
Cc1cccc(NC(=O)C2CCCN2C(=O)Oc2ccccc2)c1C (centres undefined) 3.77% [at 1.563 µM]
CSc1ccc(Cl)c(C(=O)OCC(=O)Nc2ccccc2OC(F)F)c1 3.28% [at 50 µM]
CCOC(=O)c1oc2ccc(Br)cc2c1CSc1nnc(C)s1 3.38% [at 12.5 µM]

Random excerpt: 2 records from the list
Max inhibition, inactive:
CCCCn1ccnc1C(=O)c1cccc(S(=O)(=O)N2c3ccccc3CC2C)c1 (centres undefined) 2.55% [at 50 µM]
O=C(/C=C/c1cccc(C(F)(F)F)c1)Nc1cccc(C(F)(F)F)c1 2.77% [at 12.5 µM]
